Measured values as given in the supplement of paper PMC4862054.
Most entries show no effect beyond the scatter of the controls.

Columns and labels:
Test in all cases: normalised response (% of control), CellTox Green; higher = less cell death (100 = DMSO, 0 = benzethonium chloride kill control)
Conditions in all cases: incubation time: 72 h
BT-474 [1] = test system: BT-474
Protocol: (§1)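 DSRT, 72 h incubation, CellTox Green / CellTiter-Glo readout. Signal is normalised to DMSO and benzethonium chloride controls. Value is the normalised response at the lowest tested concentration.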

BT-549 [2] = test system: BT-549
Protocol: as §1

CAL-120 [3] = test system: CAL-120
Protocol: as §1

CAL-148 [4] = test system: CAL-148
Protocol: as §1

CAL-51 [5] = test system: CAL-51
Protocol: as §1

CAL-85-1 [6] = test system: CAL-85-1
Protocol: as §1

DU-4475 [7] = test system: DU-4475
Protocol: as §1

HCC1143 [8] = test system: HCC1143
Protocol: as §1

HCC1599 [9] = test system: HCC1599
Protocol: as §1

HDQ-P1 [10] = test system: HDQ-P1
Protocol: as §1

Hs578T [11] = test system: Hs578T
Protocol: as §1

MCF-10A [12] = test system: MCF-10A
Protocol: as §1

MDA-MB-231 [13] = test system: MDA-MB-231
Protocol: as §1

MDA-MB-436 [14] = test system: MDA-MB-436
Protocol: as §1

MDA-MB-453 [15] = test system: MDA-MB-453
Protocol: as §1

MDA-MB-468 = test system: MDA-MB-468
Protocol: as §1

MFM-223 [16] = test system: MFM-223
Protocol: as §1

BT-474 [17] = test system: BT-474; remark: listed apart in the source
Protocol: (§2)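 DSRT, 72 h incubation, CellTox Green / CellTiter-Glo readout. Signal is normalised to DMSO and benzethonium chloride controls. Value is the normalised response at dose 2.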

BT-549 [18] = test system: BT-549; remark: listed apart in the source
Protocol: as §2

CAL-120 [19] = test system: CAL-120; remark: listed apart in the source
Protocol: as §2

CAL-148 [20] = test system: CAL-148; remark: listed apart in the source
Protocol: as §2

CAL-51 [21] = test system: CAL-51; remark: listed apart in the source
Protocol: as §2

CAL-85-1 [22] = test system: CAL-85-1; remark: listed apart in the source
Protocol: as §2

DU-4475 [23] = test system: DU-4475; remark: listed apart in the source
Protocol: as §2

HCC1143 [24] = test system: HCC1143; remark: listed apart in the source
Protocol: as §2

HCC1599 [25] = test system: HCC1599; remark: listed apart in the source
Protocol: as §2

HDQ-P1 [26] = test system: HDQ-P1; remark: listed apart in the source
Protocol: as §2

Hs578T [27] = test system: Hs578T; remark: listed apart in the source
Protocol: as §2

MCF-10A [28] = test system: MCF-10A; remark: listed apart in the source
Protocol: as §2

MDA-MB-231 [29] = test system: MDA-MB-231; remark: listed apart in the source
Protocol: as §2

MDA-MB-436 [30] = test system: MDA-MB-436; remark: listed apart in the source
Protocol: as §2

MDA-MB-453 [31] = test system: MDA-MB-453; remark: listed apart in the source
Protocol: as §2

MFM-223 [32] = test system: MFM-223; remark: listed apart in the source
Protocol: as §2

| Structure (SMILES) | normalised response (BT-474 [1]) | normalised response (BT-549 [2]) | normalised response (CAL-120 [3]) | normalised response (CAL-148 [4]) | normalised response (CAL-51 [5]) | normalised response (CAL-85-1 [6]) | normalised response (DU-4475 [7]) | normalised response (HCC1143 [8]) | normalised response (HCC1599 [9]) | normalised response (HDQ-P1 [10]) | normalised response (Hs578T [11]) | normalised response (MCF-10A [12]) | normalised response (MDA-MB-231 [13]) | normalised response (MDA-MB-436 [14]) | normalised response (MDA-MB-453 [15]) | normalised response (MDA-MB-468) | normalised response (MFM-223 [16]) | normalised response (BT-474 [17]) | normalised response (BT-549 [18]) | normalised response (CAL-120 [19]) | normalised response (CAL-148 [20]) | normalised response (CAL-51 [21]) | normalised response (CAL-85-1 [22]) | normalised response (DU-4475 [23]) | normalised response (HCC1143 [24]) | normalised response (HCC1599 [25]) | normalised response (HDQ-P1 [26]) | normalised response (Hs578T [27]) | normalised response (MCF-10A [28]) | normalised response (MDA-MB-231 [29]) | normalised response (MDA-MB-436 [30]) | normalised response (MDA-MB-453 [31]) | normalised response (MFM-223 [32]) |
| --- | --- | --- | --- | --- | --- | --- | --- | --- | --- | --- | --- | --- | --- | --- | --- | --- | --- | --- | --- | --- | --- | --- | --- | --- | --- | --- | --- | --- | --- | --- | --- | --- | --- |
| COc1ccc(S(=O)(=O)Nc2cccnc2Nc2ccc(O)cc2)cc1 [ABT-751] (1 nM) | 99.5% | 109% | 96.7% | 104% | 126% | 99.5% | 97.9% | 104% | 101% | 98.8% | 63.5% | 83.3% | 102% | 86.4% | 106% | 114% | 94.3% |  |  |  |  |  |  |  |  |  |  |  |  |  |  |  |  |
| CN(C)CCN1C(=O)c2cccc3cc(N)cc(c23)C1=O [Amonafide] (1 nM) | 101% | 99% | 91.7% | 104% | 134% | 106% | 94.9% | 110% | 95.7% | 90.7% | 107% | 104% | 82.5% | 88.5% | 108% | 105% | 102% |  |  |  |  |  |  |  |  |  |  |  |  |  |  |  |  |
| Cc1c(N)nc([C@H](CC(N)=O)NC[C@H](N)C(N)=O)nc1C(=O)N[C@H](C(=O)N[C@H](C)[C@@H](O)[C@H](C)C(=O)N[C@H](C(=O)NCCc1nc(-c2nc(C(=O)NCCC[S+](C)C)cs2)cs1)[C@@H](C)O)[C@@H](OC1OC(CO)C(O)C(O)C1OC1OC(CO)C(O)C(OC(N)=O)C1O)c1cnc[nH]1 (some centres not stated) [Bleomycin] (1 nM) | 99.1% | 101% | 98.4% | 99.9% | 99.6% | 103% | 99.7% | 117% | 103% | 56.8% |  | 103% | 96.8% | 86.8% | 101% | 108% | 95.4% |  |  |  |  |  |  |  |  |  |  |  |  |  |  |  |  |
| C#Cc1cccc(Nc2ncnc3cc(OC)c(OCCCCCCC(=O)NO)cc23)c1 [CUDC-101] (1 nM) | 104% | 101% | 98% |  | 112% | 101% | 101% | 76.1% | 107% | 108% | 90.5% | 61.4% | 85.5% |  | 115% | 86.4% | 95.5% |  |  |  |  |  |  |  |  |  |  |  |  |  |  |  |  |
| C#Cc1cccc(Nc2ncnc3cc(OC)c(OCCCCCCC(=O)NO)cc23)c1 [CUDC-101] (10 nM) |  |  |  |  |  |  |  |  |  |  |  |  |  |  |  |  |  | 97.6% | 113% | 106% | 101% | 70.1% | 89% | 112% | 115% | 114% | 118% | 52.2% | 113% | 104% | 109% | 94.2% | 103% |
| CC(C)C[C@H](NC(=O)[C@H](CCc1ccccc1)NC(=O)CN1CCOCC1)C(=O)N[C@@H](Cc1ccccc1)C(=O)N[C@@H](CC(C)C)C(=O)[C@@]1(C)CO1 [Carfilzomib] (0.1 nM) | 103% | 95% | 102% | 106% | 124% | 100% | 101% | 68.3% | 99.5% | 95.6% |  | 98.7% | 110% |  | 111% | 98.8% | 103% |  |  |  |  |  |  |  |  |  |  |  |  |  |  |  |  |
| CCN1CCN(c2ccc(Nc3cc(N(C)C(=O)Nc4c(Cl)c(OC)cc(OC)c4Cl)ncn3)cc2)CC1 [NVP-BGJ398] (0.1 nM) | 97.7% | 96.8% | 105% |  | 86.4% | 96.8% | 98.3% | 66.8% | 98.7% | 95% | 109% | 80.3% | 96.6% | 83.1% | 85% | 122% | 95.6% |  |  |  |  |  |  |  |  |  |  |  |  |  |  |  |  |
| NS(=O)(=O)OC[C@@H]1C[C@@H](n2ccc3c(N[C@H]4CCc5ccccc54)ncnc32)C[C@@H]1O [Pevonedistat] (1 nM) | 102% | 110% | 106% | 91.5% | 107% | 105% | 113% | 128% | 118% | 108% | 120% | 109% | 114% | 97.9% | 104% | 70.8% | 99.3% |  |  |  |  |  |  |  |  |  |  |  |  |  |  |  |  |
| CO[C@H]1C[C@@H]2CC[C@@H](C)[C@@](O)(O2)C(=O)C(=O)N2CCCC[C@H]2C(=O)O[C@H]([C@H](C)C[C@@H]2CC[C@@H](OP(C)(C)=O)[C@H](OC)C2)CC(=O)[C@H](C)/C=C(\C)[C@@H](O)[C@@H](OC)C(=O)[C@H](C)C[C@H](C)/C=C/C=C/C=C/1C [Ridaforolimus] (0.01 nM) | 101% | 85.1% | 98.3% | 103% | 132% | 111% | 100% | 124% | 89.5% |  | 113% | 105% | 96.5% | 60.9% | 96.9% | 81.8% | 102% |  |  |  |  |  |  |  |  |  |  |  |  |  |  |  |  |
| CC1=C(/C=C/C(C)=C/C=C/C(C)=C/C(=O)O)C(C)(C)CCC1 [Tretinoin] (1 nM) | 97.7% | 99.2% | 100% | 93.5% | 113% | 101% | 110% | 114% | 118% | 71.2% | 101% | 102% | 119% | 73.9% | 101% | 102% | 96.1% |  |  |  |  |  |  |  |  |  |  |  |  |  |  |  |  |
